From publication PMC9278858

By UniProt entry, the sequences of proteins in these tests, tags left out.
UniProt P04050: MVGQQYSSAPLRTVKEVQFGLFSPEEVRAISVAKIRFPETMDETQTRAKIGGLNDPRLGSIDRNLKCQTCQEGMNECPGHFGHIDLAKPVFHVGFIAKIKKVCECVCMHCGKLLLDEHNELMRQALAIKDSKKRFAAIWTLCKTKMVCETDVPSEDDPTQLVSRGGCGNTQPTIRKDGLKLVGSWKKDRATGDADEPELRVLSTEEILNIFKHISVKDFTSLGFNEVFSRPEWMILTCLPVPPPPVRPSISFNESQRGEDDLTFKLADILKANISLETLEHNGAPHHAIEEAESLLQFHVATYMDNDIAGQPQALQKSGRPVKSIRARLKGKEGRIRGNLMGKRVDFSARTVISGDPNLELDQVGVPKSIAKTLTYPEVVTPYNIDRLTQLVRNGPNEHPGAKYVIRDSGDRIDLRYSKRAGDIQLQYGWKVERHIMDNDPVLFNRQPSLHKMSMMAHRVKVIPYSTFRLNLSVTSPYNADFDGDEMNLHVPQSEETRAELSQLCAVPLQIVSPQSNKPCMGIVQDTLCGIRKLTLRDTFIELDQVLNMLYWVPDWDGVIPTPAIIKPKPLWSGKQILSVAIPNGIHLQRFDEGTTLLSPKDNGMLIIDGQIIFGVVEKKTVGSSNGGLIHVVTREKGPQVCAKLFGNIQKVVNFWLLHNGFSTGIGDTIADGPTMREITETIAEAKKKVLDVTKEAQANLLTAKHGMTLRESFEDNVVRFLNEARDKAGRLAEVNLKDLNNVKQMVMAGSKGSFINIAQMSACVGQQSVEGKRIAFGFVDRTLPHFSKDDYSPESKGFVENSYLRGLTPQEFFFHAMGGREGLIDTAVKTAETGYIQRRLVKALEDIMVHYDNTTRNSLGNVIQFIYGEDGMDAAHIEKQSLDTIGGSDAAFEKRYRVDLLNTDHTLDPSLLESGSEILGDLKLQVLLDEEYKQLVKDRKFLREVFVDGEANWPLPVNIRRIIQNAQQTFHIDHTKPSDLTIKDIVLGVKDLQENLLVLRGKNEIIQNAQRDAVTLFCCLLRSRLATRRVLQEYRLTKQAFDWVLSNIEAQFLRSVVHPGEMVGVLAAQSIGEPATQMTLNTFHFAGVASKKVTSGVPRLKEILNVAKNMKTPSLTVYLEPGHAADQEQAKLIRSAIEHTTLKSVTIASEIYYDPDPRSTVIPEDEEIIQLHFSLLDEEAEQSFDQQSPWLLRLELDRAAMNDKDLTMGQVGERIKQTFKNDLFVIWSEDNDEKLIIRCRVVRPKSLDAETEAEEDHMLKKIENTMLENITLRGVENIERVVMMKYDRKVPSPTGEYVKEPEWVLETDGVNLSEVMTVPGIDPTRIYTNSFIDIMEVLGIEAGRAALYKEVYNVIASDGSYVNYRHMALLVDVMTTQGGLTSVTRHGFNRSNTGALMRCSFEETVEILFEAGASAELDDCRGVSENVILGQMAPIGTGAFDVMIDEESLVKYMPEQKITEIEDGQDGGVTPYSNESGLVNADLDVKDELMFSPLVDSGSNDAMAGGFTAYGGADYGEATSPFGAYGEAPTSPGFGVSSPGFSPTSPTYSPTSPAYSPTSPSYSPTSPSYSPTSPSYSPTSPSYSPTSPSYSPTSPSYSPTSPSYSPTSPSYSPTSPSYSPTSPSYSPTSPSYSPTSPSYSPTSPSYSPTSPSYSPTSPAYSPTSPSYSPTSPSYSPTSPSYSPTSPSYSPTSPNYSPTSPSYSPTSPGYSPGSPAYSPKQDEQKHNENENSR
UniProt P08518: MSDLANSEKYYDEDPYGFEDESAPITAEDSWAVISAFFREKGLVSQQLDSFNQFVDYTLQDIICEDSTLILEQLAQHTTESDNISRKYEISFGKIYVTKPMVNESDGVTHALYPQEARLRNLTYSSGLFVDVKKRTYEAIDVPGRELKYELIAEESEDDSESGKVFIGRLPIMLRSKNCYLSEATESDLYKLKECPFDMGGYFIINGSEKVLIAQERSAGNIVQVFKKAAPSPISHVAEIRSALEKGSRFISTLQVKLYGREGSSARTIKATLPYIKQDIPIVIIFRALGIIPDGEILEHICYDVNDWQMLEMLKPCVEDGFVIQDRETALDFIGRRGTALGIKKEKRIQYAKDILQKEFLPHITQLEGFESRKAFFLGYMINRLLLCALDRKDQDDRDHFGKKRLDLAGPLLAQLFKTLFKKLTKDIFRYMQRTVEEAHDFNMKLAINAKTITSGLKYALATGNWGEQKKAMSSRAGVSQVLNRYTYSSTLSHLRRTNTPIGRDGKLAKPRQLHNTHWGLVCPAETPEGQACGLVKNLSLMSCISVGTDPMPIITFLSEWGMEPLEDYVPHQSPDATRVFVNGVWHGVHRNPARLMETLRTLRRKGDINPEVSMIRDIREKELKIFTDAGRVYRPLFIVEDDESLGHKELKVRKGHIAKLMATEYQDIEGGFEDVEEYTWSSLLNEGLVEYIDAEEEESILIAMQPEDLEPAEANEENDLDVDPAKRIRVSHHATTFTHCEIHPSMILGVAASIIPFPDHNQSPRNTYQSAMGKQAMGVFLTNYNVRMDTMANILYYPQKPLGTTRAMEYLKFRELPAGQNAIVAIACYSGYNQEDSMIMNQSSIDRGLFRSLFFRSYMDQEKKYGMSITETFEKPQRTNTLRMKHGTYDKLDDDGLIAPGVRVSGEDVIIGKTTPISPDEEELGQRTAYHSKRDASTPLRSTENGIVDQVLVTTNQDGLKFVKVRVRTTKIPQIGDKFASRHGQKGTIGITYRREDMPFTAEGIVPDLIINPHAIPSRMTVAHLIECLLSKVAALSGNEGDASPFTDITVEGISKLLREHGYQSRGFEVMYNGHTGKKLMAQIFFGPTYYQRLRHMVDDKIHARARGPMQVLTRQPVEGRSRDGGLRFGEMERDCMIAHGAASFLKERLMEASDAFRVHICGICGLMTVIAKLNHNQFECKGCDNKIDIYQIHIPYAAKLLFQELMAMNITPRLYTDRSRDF

Tests used:
[1] = target: Sen1-TAP (wild-type Sen1 fused to a TAP tag) (S. cerevisiae) (UniProt Q00416); test: affinity purification with mass spectrometry; Sen1-TAP or Sen1-3–TAP as bait; yeast lysates; untagged control
[2] = target: Sen1-3–TAP (Sen1 W773A E774A W777A fused to a TAP tag) (S. cerevisiae) (UniProt Q00416); test: as above
[3] = target: T1, TAP-Sen1ΔNTD (Sen1 lacking the N-terminal domain, TAP-tagged, expressed from pGAL1) (S. cerevisiae) (UniProt Q00416); test: affinity purification with mass spectrometry; TAP-tagged Sen1 versions (full length, ΔNTD, NTD) overexpressed from pGAL1 as baits; yeast lysates in 10 mM sodium phosphate pH 7.5, 200 mM sodium acetate, 0.25% NP-40, treated with RNase A; IgG Sepharose; elution by TEV cleavage; untagged control
T1 sequence: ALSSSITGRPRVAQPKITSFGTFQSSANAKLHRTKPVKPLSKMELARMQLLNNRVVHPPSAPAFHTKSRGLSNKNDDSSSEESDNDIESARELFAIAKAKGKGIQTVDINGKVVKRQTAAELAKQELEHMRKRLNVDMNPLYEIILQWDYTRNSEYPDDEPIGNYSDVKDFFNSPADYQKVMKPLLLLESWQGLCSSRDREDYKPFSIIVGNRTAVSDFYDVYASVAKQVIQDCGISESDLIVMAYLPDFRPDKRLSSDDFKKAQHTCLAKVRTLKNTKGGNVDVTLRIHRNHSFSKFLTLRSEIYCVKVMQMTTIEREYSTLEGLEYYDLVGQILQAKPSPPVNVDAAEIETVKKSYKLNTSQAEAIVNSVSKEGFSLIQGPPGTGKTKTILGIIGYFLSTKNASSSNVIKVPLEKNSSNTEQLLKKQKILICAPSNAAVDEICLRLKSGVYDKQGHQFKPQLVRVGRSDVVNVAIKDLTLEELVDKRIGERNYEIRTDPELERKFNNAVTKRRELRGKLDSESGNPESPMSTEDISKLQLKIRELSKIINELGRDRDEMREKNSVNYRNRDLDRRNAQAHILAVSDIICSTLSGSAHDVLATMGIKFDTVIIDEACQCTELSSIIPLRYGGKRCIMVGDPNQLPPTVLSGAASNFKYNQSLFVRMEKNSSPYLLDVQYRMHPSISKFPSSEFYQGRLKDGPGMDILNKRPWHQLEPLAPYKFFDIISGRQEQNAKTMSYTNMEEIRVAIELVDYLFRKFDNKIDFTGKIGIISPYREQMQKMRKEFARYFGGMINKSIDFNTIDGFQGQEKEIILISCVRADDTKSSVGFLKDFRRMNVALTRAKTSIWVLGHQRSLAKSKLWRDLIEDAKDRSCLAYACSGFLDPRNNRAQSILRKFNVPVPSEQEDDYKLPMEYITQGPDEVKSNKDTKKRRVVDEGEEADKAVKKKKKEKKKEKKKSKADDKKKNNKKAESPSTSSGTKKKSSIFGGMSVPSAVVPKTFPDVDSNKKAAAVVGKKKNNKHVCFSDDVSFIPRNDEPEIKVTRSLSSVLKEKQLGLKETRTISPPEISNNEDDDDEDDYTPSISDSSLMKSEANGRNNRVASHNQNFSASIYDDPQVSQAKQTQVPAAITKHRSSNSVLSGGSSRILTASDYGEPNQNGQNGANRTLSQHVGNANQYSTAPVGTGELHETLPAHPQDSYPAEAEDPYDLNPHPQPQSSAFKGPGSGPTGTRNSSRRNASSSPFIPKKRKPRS

[4] = target: TAP-Sen1 (full-length Sen1 fused to a tandem affinity purification tag, expressed from pGAL1) (S. cerevisiae) (UniProt Q00416); test: as above

binding [1] | binding [2] | binding [3] | binding [4] | Substance
binds | binds | binds | binds | Rpb1 (from UniProt P04050 1-1733)
binds | binds | binds | binds | Rpb2 (from UniProt P08518 1-1224)

Results are given in words; binding and its absence hold for the method and conditions named. In cells and extracts the contact can be indirect. A yes stands for co-enrichment or nearness to the bait. Other partners may have been found. For some assays here: Where a sequence is shown, tags or fusion partners need not be part of it.
